Results from patent US20250282824A1 (Stichting VU, priority 2021, published 2025).

Experiment: general procedure: Fmoc solid-phase peptide synthesis; H-Rink amide ChemMatrix (linear peptides); 2-chlorotrityl chloride resin (cyclic peptides); COMU/Oxyma/DIPEA (manual); PyBOP then HATU with Oxyma/DIPEA (automated)
Conditions: for final HPLC purity / isolated yield: whole synthesis, scale of the general procedure 10-100 umol (linear), 0.1 mmol to 0.5 mmol (cyclic); for final HPLC purity: 210 nm; for cyclisation yield: cyclisation step

For G R K K R R Q R R R P Q, the “final HPLC purity” value was greater than 95% and the isolated yield was 16%.
[βA V T R N [C V p P D C] L L V F βA] gave a cyclisation yield (run 1) of 38%, a cyclisation yield (run 2) of 37% and a cyclisation yield (run 3) of 60%. For the same substance, the “final HPLC purity” value (run 1) was greater than 95%, the “final HPLC purity” value (run 2) was greater than 95% and the “final HPLC purity” value (run 3) was greater than 95%. The “final HPLC purity” value (run 4) was 95%, the “final HPLC purity” value (run 5) was greater than 95% and the “final HPLC purity” value (run 6) was 95%. The “final HPLC purity” value (run 7) was 95%, the “final HPLC purity” value (run 8) was greater than 95% and the isolated yield (overall, run 1) was 3%. It also gave an isolated yield (overall, run 2) of 2%, an isolated yield (overall, run 3) of 1% and an isolated yield (overall, run 4) of 2%. The isolated yield (overall, run 5) was 2%, the isolated yield (overall, run 6) was 2% and the isolated yield (overall, run 7) was 4%. It also gave an isolated yield (overall, run 8) of 3%.
In the case of [βA V T R N D V p P D S L L V F βA], the “final HPLC purity” value is reported as greater than 95% and the isolated yield (overall) is reported as 10%.
In the case of V T R N D V p P D S L L V F, the “final HPLC purity” value is reported as greater than 95%, the isolated yield (run 1) is reported as 5% and the isolated yield (run 2) is reported as 12%.
With “D S L L V F βA βA V T R N D V A P T L B S V P Q” the “final HPLC purity” value was 90% and the isolated yield was less than 1%.
With [βA V T R C D V p P D S C L V F βA] the “final HPLC purity” value was 95% and the isolated yield (overall) was 4%.
For “[βA V T R [S5* D V p P D S S5*] L V F βA]”, the “final HPLC purity” value was roughly 90% and the isolated yield (overall) was less than 1%.
In the case of [βA V T R N C V p P D C L L V F βA], the “final HPLC purity” value is reported as greater than 95% and the isolated yield (overall) is reported as 6%.
For “[βA V [S6* R N D V p P D S L L S6*] F βA]”, the “final HPLC purity” value was roughly 90% and the isolated yield (overall) was less than 1%.
For “D E L I S F K D E G E Q E βA βA E R D L A D V K S S L V N”, the “final HPLC purity” value was 95% and the isolated yield was 2%.
With D S L L V F βA βA V T R N D V the “final HPLC purity” value was 95% and the isolated yield was less than 1%.
With “[βA V [C R K (F I)D V p P D S L L C] F βA]” the “final HPLC purity” value was greater than 95% and the isolated yield (overall) was less than 1%.
For “[βA V T R K (F I)D V p P D S L L V F βA]”, the “final HPLC purity” value was greater than 95% and the isolated yield (overall) was 4%.
[βA V T R [C D V p P D S C] L V F βA] gave a cyclisation yield (run 1) of 17%, a cyclisation yield (run 2) of 14% and a cyclisation yield (run 3) of 45%. For the same substance, the “final HPLC purity” value (run 1) was greater than 95%, the “final HPLC purity” value (run 2) was greater than 95% and the “final HPLC purity” value (run 3) was greater than 95%. For the same substance, the “final HPLC purity” value (run 4) was greater than 95%, the “final HPLC purity” value (run 5) was greater than 95% and the “final HPLC purity” value (run 6) was 95%. For the same substance, the “final HPLC purity” value (run 7) was greater than 95%, the “final HPLC purity” value (run 8) was 86% and the isolated yield (overall, run 1) was less than 1%. For the same substance, the isolated yield (overall, run 2) was 2%, the isolated yield (overall, run 3) was 2% and the isolated yield (overall, run 4) was 1%. For the same substance, the isolated yield (overall, run 5) was 1%, the isolated yield (overall, run 6) was 1% and the isolated yield (overall, run 7) was 4%. For the same substance, the isolated yield (overall, run 8) was less than 1%.
In the case of [βA V C R N D V p P D S L L C F βA], the “final HPLC purity” value is reported as greater than 95% and the isolated yield (overall) is reported as 8%.
For [βA V [C R N D V p P D S L L C] F βA], the cyclisation yield (run 1) was 64%, the cyclisation yield (run 2) was 24% and the “final HPLC purity” value was greater than 95%. For the same substance, the isolated yield (overall, run 1) was 1%, the isolated yield (overall, run 2) was 2% and the isolated yield (overall, run 3) was 1%. It also gave an isolated yield (overall, run 4) of 5%, an isolated yield (overall, run 5) of 2% and an isolated yield (overall, run 6) of 4%.
With “[βA V [S5* R N D V p P D S L L S5*] F βA]” the “final HPLC purity” value was roughly 90% and the isolated yield (overall) was less than 1%.
